Measurements published in the supplement of paper PMC10849652.
This is one part of the list.

Protein sequences, listed by entry. Tags and fused reporters are not part of them. Lines headed by an entry give the natural chain unless they say otherwise; changes in a name come on top.
UniProt P51159: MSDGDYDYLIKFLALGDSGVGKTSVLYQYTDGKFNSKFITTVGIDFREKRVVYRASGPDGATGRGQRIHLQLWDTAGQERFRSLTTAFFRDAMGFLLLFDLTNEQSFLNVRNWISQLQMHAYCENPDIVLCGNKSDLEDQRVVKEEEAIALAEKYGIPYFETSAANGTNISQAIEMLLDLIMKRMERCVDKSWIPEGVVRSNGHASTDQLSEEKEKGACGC
UniProt Q9NR77: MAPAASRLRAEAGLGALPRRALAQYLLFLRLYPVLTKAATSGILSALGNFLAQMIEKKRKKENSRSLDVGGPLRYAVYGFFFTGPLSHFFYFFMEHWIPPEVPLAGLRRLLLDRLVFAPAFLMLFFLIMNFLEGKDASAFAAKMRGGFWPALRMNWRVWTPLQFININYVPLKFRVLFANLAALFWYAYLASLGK
UniProt P43487, whole entry, looked up: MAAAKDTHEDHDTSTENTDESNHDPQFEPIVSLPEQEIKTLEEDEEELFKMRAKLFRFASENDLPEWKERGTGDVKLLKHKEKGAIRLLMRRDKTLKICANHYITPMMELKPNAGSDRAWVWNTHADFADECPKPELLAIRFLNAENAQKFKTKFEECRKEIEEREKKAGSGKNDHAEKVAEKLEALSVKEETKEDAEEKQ
UniProt Q9Y6I8: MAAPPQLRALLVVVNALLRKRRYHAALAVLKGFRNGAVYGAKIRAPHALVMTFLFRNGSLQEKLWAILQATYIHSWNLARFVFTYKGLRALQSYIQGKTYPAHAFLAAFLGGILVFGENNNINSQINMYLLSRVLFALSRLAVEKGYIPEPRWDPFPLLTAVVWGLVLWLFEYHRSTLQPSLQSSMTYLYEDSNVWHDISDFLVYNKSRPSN
UniProt Q9H082: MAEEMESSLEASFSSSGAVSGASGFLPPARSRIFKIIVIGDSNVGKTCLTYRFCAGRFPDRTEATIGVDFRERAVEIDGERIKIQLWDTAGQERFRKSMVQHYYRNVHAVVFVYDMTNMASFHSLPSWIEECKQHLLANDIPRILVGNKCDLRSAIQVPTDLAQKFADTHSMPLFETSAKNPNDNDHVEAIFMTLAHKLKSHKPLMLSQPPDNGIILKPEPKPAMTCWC
UniProt P61225: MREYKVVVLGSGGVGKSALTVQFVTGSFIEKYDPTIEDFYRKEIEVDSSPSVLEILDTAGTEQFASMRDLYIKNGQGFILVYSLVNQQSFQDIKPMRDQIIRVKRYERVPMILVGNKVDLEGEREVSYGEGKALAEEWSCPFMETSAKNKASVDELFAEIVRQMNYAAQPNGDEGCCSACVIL
UniProt Q86X10: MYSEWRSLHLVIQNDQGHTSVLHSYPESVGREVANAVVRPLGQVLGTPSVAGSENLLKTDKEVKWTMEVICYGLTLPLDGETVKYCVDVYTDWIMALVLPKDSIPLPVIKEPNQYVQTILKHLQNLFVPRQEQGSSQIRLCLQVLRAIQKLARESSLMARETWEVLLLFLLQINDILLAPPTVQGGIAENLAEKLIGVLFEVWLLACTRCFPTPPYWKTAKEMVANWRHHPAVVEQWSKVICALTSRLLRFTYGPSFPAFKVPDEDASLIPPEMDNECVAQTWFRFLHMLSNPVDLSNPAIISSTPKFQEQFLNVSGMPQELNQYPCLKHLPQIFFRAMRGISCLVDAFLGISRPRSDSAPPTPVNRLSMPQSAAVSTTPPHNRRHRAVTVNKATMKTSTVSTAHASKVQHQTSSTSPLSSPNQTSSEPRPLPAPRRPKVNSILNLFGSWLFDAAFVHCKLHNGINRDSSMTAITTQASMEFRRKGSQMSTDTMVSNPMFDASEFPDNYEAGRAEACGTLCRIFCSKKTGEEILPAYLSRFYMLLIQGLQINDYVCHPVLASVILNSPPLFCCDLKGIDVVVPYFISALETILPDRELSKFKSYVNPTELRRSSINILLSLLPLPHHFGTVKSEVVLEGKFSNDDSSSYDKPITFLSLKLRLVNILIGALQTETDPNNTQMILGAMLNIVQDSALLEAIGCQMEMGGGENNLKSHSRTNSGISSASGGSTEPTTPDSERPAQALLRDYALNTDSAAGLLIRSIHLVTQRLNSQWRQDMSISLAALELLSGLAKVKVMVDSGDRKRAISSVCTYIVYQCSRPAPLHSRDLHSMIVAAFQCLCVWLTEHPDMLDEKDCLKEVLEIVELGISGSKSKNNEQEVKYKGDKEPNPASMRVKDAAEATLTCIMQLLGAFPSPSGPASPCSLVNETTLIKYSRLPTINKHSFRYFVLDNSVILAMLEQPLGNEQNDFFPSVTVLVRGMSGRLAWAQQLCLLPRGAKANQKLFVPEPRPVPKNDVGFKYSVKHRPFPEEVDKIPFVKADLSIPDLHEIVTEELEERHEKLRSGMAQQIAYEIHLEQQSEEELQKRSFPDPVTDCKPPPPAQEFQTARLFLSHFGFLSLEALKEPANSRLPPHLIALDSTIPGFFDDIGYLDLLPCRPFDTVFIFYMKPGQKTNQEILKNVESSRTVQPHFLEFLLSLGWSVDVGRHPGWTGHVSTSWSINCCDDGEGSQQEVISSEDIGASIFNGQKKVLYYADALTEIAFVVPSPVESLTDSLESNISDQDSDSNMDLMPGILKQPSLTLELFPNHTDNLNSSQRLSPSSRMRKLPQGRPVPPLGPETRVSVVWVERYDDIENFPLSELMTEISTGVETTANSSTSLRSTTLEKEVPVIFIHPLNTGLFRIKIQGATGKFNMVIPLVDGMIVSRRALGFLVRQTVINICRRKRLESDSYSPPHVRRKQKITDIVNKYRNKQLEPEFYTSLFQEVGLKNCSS
UniProt Q9H6Z4: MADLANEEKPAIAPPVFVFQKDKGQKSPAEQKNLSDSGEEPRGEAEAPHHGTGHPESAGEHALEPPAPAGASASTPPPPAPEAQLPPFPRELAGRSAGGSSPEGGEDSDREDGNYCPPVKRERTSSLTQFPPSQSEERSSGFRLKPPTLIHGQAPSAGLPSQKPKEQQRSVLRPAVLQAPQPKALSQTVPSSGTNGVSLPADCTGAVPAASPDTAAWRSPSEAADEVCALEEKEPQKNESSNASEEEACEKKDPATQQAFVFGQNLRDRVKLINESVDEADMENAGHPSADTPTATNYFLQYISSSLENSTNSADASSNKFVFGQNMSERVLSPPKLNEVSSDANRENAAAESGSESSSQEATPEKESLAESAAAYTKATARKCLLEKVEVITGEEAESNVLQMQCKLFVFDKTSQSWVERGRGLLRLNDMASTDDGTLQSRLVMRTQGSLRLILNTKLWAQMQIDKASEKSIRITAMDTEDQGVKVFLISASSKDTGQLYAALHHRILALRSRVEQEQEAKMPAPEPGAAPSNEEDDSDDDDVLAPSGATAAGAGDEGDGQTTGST

Tests used:
Assay in all cases: log2 fold change, soluble protein after heating vs DMSO (PISA); higher = thermal stabilisation; K562 lysate, 10 uM; active = over 0.2 and 3.5 SD of the protein, either way, in both replicates (recomputed)
[1] = compound: C1=CC=C(C=C1)[C@H](COC2=CC3=C(C=C2)NC(=O)N3)NC(=O)C4=CC=CN(C4=O)CC5=CC(=C(C=C5)F)F
Summary of the method: (§1)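 Quantification was by TMTpro 16plex LC-MS/MS with equalised channel sums, applied to the supernatant after 21,000xg for 90 min. Samples were crude K562 extract at 1 mg/mL protein in PBS pH 7.4 with 1 mM MgCl2, treated with 10 μM compound for 30 min, heated for 3 min across 48°C-58°C, pooled and brought to 0.5% NP-40 at 4°C. Values are log-two fold changes in thermal stability relative to solvent controls, from duplicates.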

[2] = compound: CC1=C(SC2=C1C(=N[C@H](C3=NN=C(N32)C)CC(=O)N)C4=CC=C(C=C4)Cl)C
Summary of the method: as §1

[3] = compound: CC1=C2C(=CC=C1)N=C(N(C2=O)C3=CC=CC=C3C)CN4C=NC5=C(N=CN=C54)N
Summary of the method: as §1

[4] = compound: Cc1sc2c(c1C)C(c1ccc(Cl)cc1)=N[C@@H](CC(=O)OC(C)(C)C)c1nnc(C)n1-2
Summary of the method: as §1

[5] = compound: c1ccc([C@@H]2C[C@H]2NC2CCNCC2)cc1
Summary of the method: as §1

Measured: log2 fold change

RAB27A (UniProt P51159)
inactive: [1] 0.052 | [2] 0.028 | [3] -0.007 | [4] -0.013 | [5] 0.181

PXMP2 (UniProt Q9NR77)
inactive: [1] -0.036 | [2] 0.041 | [3] -0.003 | [4] -0.003 | [5] -0.019

RACK1 (UniProt P63244)
inactive: [1] 0.015 | [2] -0.011 | [3] -0.01 | [4] 0.053 | [5] 0.059

RANBP1 (UniProt P43487)
inactive: [1] 0.003 | [2] -0.009 | [3] -0.005 | [4] 0.009 | [5] -0.038

PXMP4 (UniProt Q9Y6I8)
inactive: [1] -0.096 | [2] -0.022 | [3] -0.026 | [4] -0.191 | [5] 0.041

RAB33B (UniProt Q9H082)
inactive: [1] 0.086 | [2] -0.079 | [3] 0.012 | [4] -0.056 | [5] 0.101

RAP2B (UniProt P61225)
inactive: [1] -0.02 | [2] -0.003 | [3] 0.048 | [4] -0.037 | [5] -0.048

RALGAPB (UniProt Q86X10)
inactive: [1] 0.029 | [2] 0.023 | [3] 0.085 | [4] -0.026 | [5] 0.006

RANBP3 isoform 2 (UniProt Q9H6Z4)
inactive: [1] 0.069 | [2] -0.012 | [3] 0.113 | [4] -0.04
